No constants are given. Whether binding was seen depends on the method and setting. For some assays here: In cells and extracts the contact can be indirect. Some binding calls cover weakened binding; strength is not graded here. Tags and fused reporters may be left off the sequences shown.
What was measured:
[1] = target: CELLULOSE SYNTHASE 3 fused to the C-terminal part of ubiquitin (Cub) and the URA3 reporter protein (split-ubiquitin bait) (Arabidopsis thaliana) (UniProt Q941L0); assay: two-hybrid; yeast split-ubiquitin two-hybrid in S. cerevisiae JD53; bait CESA3-Cub-URA3, preys fused to NubG; growth on SC-HT medium with 1 mg/ml 5-FOA; 80 colonies of each combination spotted, 30°C, 3 d
[2] = target: YFP^N-CESA3 (the N-terminal half of YFP fused to the N-terminus of CESA3) (Arabidopsis thaliana) (UniProt Q941L0); assay: split reporter; BiFC with the halves of YFP, co-expression in epidermal cells of Nicotiana benthamiana (tobacco) leaves, YFP fluorescence by confocal microscopy

Binder	binding [1]	binding [2]
CELLULOSE SYNTHASE 3 fused to the C-terminal part of ubiquitin (Cub) and the URA3 reporter protein (split-ubiquitin bait) (enzyme, UniProt Q941L0 1-1065) MESEGETAGKPMKNIVPQTCQICSDNVGKTVDGDRFVACDICSFPVCRPCYEYERKDGNQSCPQCKTRYKRLKGSPAIPGDKDEDGLADEGTVEFNYPQKEKISERMLGWHLTRGKGEEMGEPQYDKEVSHNHLPRLTSRQDTSGEFSAASPERLSVSSTIAGGKRLPYSSDVNQSPNRRIVDPVGLGNVAWKERVDGWKMKQEKNTGPVSTQAASERGGVDIDASTDILADEALLNDEARQPLSRKVSIPSSRINPYRMVIMLRLVILCLFLHYRITNPVPNAFALWLVSVICEIWFALSWILDQFPKWFPVNRETYLDRLALRYDREGEPSQLAAVDIFVSTVDPLKEPPLVTANTVLSILAVDYPVDKVSCYVSDDGAAMLSFESLAETSEFARKWVPFCKKYSIEPRAPEWYFAAKIDYLKDKVQTSFVKDRRAMKREYEEFKIRINALVSKALKCPEEGWVMQDGTPWPGNNTRDHPGMIQVFLGQNGGLDAEGNELPRLVYVSREKRPGFQHHKKAGAMNALVRVSAVLTNGPFILNLDCDHYINNSKALREAMCFLMDPNLGKQVCYVQFPQRFDGIDKNDRYANRNTVFFDINLRGLDGIQGPVYVGTGCVFNRTALYGYEPPIKVKHKKPSLLSKLCGGSRKKNSKAKKESDKKKSGRHTDSTVPVFNLDDIEEGVEGAGFDDEKALLMSQMSLEKRFGQSAVFVASTLMENGGVPPSATPENLLKEAIHVISCGYEDKSDWGMEIGWIYGSVTEDILTGFKMHARGWRSIYCMPKLPAFKGSAPINLSDRLNQVLRWALGSVEILFSRHCPIWYGYNGRLKFLERFAYVNTTIYPITSIPLLMYCTLPAVCLFTNQFIIPQISNIASIWFLSLFLSIFATGILEMRWSGVGIDEWWRNEQFWVIGGVSAHLFAVFQGILKVLAGIDTNFTVTSKASDEDGDFAELYLFKWTTLLIPPTTLLIVNLVGVVAGVSYAINSGYQSWGPLFGKLFFAFWVIVHLYPFLKGLMGRQNRTPTIVVVWSVLLASIFSLLWVRIDPFTSRVTGPDILECGINC	binds	–
YFP^N-CESA3 (the N-terminal half of YFP fused to the N-terminus of CESA3) (enzyme, UniProt Q941L0 1-1065) MESEGETAGKPMKNIVPQTCQICSDNVGKTVDGDRFVACDICSFPVCRPCYEYERKDGNQSCPQCKTRYKRLKGSPAIPGDKDEDGLADEGTVEFNYPQKEKISERMLGWHLTRGKGEEMGEPQYDKEVSHNHLPRLTSRQDTSGEFSAASPERLSVSSTIAGGKRLPYSSDVNQSPNRRIVDPVGLGNVAWKERVDGWKMKQEKNTGPVSTQAASERGGVDIDASTDILADEALLNDEARQPLSRKVSIPSSRINPYRMVIMLRLVILCLFLHYRITNPVPNAFALWLVSVICEIWFALSWILDQFPKWFPVNRETYLDRLALRYDREGEPSQLAAVDIFVSTVDPLKEPPLVTANTVLSILAVDYPVDKVSCYVSDDGAAMLSFESLAETSEFARKWVPFCKKYSIEPRAPEWYFAAKIDYLKDKVQTSFVKDRRAMKREYEEFKIRINALVSKALKCPEEGWVMQDGTPWPGNNTRDHPGMIQVFLGQNGGLDAEGNELPRLVYVSREKRPGFQHHKKAGAMNALVRVSAVLTNGPFILNLDCDHYINNSKALREAMCFLMDPNLGKQVCYVQFPQRFDGIDKNDRYANRNTVFFDINLRGLDGIQGPVYVGTGCVFNRTALYGYEPPIKVKHKKPSLLSKLCGGSRKKNSKAKKESDKKKSGRHTDSTVPVFNLDDIEEGVEGAGFDDEKALLMSQMSLEKRFGQSAVFVASTLMENGGVPPSATPENLLKEAIHVISCGYEDKSDWGMEIGWIYGSVTEDILTGFKMHARGWRSIYCMPKLPAFKGSAPINLSDRLNQVLRWALGSVEILFSRHCPIWYGYNGRLKFLERFAYVNTTIYPITSIPLLMYCTLPAVCLFTNQFIIPQISNIASIWFLSLFLSIFATGILEMRWSGVGIDEWWRNEQFWVIGGVSAHLFAVFQGILKVLAGIDTNFTVTSKASDEDGDFAELYLFKWTTLLIPPTTLLIVNLVGVVAGVSYAINSGYQSWGPLFGKLFFAFWVIVHLYPFLKGLMGRQNRTPTIVVVWSVLLASIFSLLWVRIDPFTSRVTGPDILECGINC	–	binds

From paper PMC6585848
